Values joined by “and” are separate entries in the source; they are usually repeats but may differ in a detail not shown here. Equal entries are not always repeated. In all, about 360,000 compounds went through this assay and about 7,500 (2.1%) were called active. The shares of active, inactive and inconclusive entries below differ from those in the screen. The call rests on the fitted dose curve; in most records, active means well fitted inhibition curve with a large enough effect; inconclusive means small, poorly fitted or top-dose-only effect, or effect the other way; inactive means flat fitted curve, though single readings scatter. Potencies of inconclusive entries are doubtful fits and often do not repeat.
Assay: Nrf2 qHTS screen for inhibitors; further: nearly all actives have a fitted effect of over 60% in size
Details: A549 ARE-Fluc reporter, luciferase luminescence, 18-24 h; activity change, negative = inhibition: at 46 µM (top of the series)
In short: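 Quantitative HTS in A549 cells stably bearing an antioxidant response element-firefly luciferase construct. Inhibition of Nrf2-driven transcription was scored by luminescence after 18-24 h of compound exposure at 37 °C.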
On the % scale 0 is the no-effect control and ±100 the full control effect; potency means the concentration at half of the fitted maximal effect.

Row | SMILES | Potency | activity change, negative = inhibition
1 | COc1ccc(CCNC(=O)CSc2nnnn2-c2ccc(OC)c(OC)c2)cc1OC | inactive | 
2 | CCOC(=O)c1c(C)n(C)c2ccc(O)c(CN3CCC(C)CC3)c12 | inconclusive: 16.4 µM [falling, partial curve, poor fit] | 
3 | CN(Cc1ccc(F)cc1)C(=O)c1cccc(NS(=O)(=O)c2ccccc2)c1 | inactive | 
4 | CCN(CC)S(=O)(=O)c1ccc(N2CCN(c3cccc(OC)c3)CC2)c([N+](=O)[O-])c1 | inconclusive: 9.2 µM [falling, partial curve, poor fit] | 
5 | N#Cc1ccccc1OCC(=O)NCC1(N2CCCCC2)CCCCC1 | inactive | 
6 | c1ccc(-c2nnc(NC3=NCCC3)o2)cc1 | inconclusive: 2.59 µM [activator, single point] | 
7 | Cc1cccc2cc(C#N)c(NCCNS(=O)(=O)c3ccc4c(c3)OCCO4)nc12 | inconclusive: 29.1 µM [falling, single point] | 
8 | O=C(Cn1cc(C(=O)C(F)(F)F)c2ccccc21)Nc1ccccc1F | inactive | 
9 | O=C(O)c1cccc(N/N=C/c2ccc(F)c(F)c2)c1 | inconclusive: 13 µM [activator, partial curve] | 
10 | Cc1cc(OCCn2nc(C(=O)O)c3ccccc3c2=O)ccc1C(C)C | inconclusive: 23.1 µM [falling, single point] | 
11 | O=C(O)CSc1cnc2ccccc2n1 | inconclusive: 25.9 µM [activator, single point] | 
12 | COc1ccc([C@H]2CC(=O)C=C(c3cccc(C(C)C)c3)C2)cc1OC | inconclusive: 29.1 µM [falling, single point] | 
13 | CC(C)(C)C(=O)NC(=S)Nc1cccc(C(=O)O)c1 | inconclusive: 8.2 µM [activator, partial curve] | 
14 | Cc1cccc(CCNS(=O)(=O)c2ccc(S(=O)(=O)NC3CCCC3)cc2)c1 | inconclusive: 25.9 µM [falling, single point] | 
15 | O=C1c2cccc3cccc(c23)C(=O)N1CC1CCN(S(=O)(=O)c2ccc(F)cc2)CC1 | inactive | 
16 | CCOC(=O)CNC(=O)N1CCc2ccc(NC(=O)c3ccccc3Cl)cc2C1 | inactive | 
17 | CC(C)N(Cc1nccn1C)C(=O)c1ccc2oc(Cc3ccccc3)nc2c1 | inconclusive: 29.1 µM [activator, single point] | 
18 | CC(C)(CC(=O)N1CCN(c2ccc(Cl)cc2)CC1)CC1=NS(=O)(=O)c2ccccc2N1 | inconclusive: 20.6 µM [falling, single point] | 
19 | Cc1ccccc1S(=O)(=O)Cc1ccc(C(=O)NC(C)c2ccc3c(c2)OCCO3)o1 (stereo not drawn) | inactive | 
20 | Cc1ccc(CCNC(=O)c2ccc3c(Cl)c4c(nc3c2)CCCC4)cc1 | inconclusive: 32.6 µM [falling, single point] | 
21 | CN(C)/C=N/c1nc(-c2ccc3c(c2)OCO3)cs1 | inconclusive: 4.11 µM [activator, partial curve] | 

Row | SMILES | Potency | activity change, negative = inhibition
22 | COc1ccccc1CN1CC(C(=O)N(C)Cc2nc(C)cs2)CCC1=O (stereo not drawn) | inconclusive: 29.1 µM [activator, partial curve, poor fit] | 
23 | Cc1cc(C2=NNC(=NC3CC3)SC2)c(C)n1-c1ccccc1 | active: 6.51 µM | 
24 | Cc1sc(NC(=O)/C=C/c2ccco2)c(C(=O)O)c1C | inconclusive: 6.51 µM [activator, partial curve, poor fit] | 
25 | COc1ccccc1CNC(=O)c1ccc2nc(N3CCCCC3)sc2c1 | inconclusive: 9.2 µM [activator, partial curve] | 
26 | CC(=O)c1ccc(NS(=O)(=O)c2cccc(S(=O)(=O)c3ccc(Cl)cc3)c2)cc1 | inactive | 
27 | O=C(Nc1nc(-c2cccnc2)cs1)c1ccccc1F | inconclusive: 3.26 µM [activator, single point] | 
28 | Cc1ccc(-c2nnn(CC(=O)N(Cc3cccs3)C(C(=O)NC3CCCCC3)c3ccco3)n2)o1 (stereo not drawn) | inconclusive: 16.4 µM [falling, single point] | 
29 | NC(=O)c1ccc(NC(=O)c2ccc3c(c2)OCO3)cc1 | inconclusive: 0.58 µM [activator, full curve] | 
30 | COc1cc(NC(=O)c2ccc(-c3csc(C)n3)cc2)c(OC)cc1Cl | inconclusive: 32.6 µM [falling, single point] | 
31 | O=C(N/N=C/c1ccc(-c2ccc([N+](=O)[O-])cc2)o1)[C@H]1C[C@@H]1c1ccccc1 | inconclusive: 4.61 µM [falling, full curve, poor fit] | 
32 | CCn1cc(C(=O)NCc2ccco2)c(=O)c2cc(S(=O)(=O)N3CCc4ccccc4C3)ccc21 | inconclusive: 29.1 µM [falling, single point] | 
33 | Brc1ccc2c(c1)OCCOCCOc1cc(Br)ccc1OCCOCCOCCO2 | inconclusive: 29.1 µM [falling, single point] | 
34 | Cc1c(NC(=S)Nc2ccccc2)c(=O)n(-c2ccccc2)n1C | inconclusive: 3.26 µM [falling, single point] | 
35 | O=C(NCc1ccc(Cl)cc1)C1CCN(S(=O)(=O)c2cc([N+](=O)[O-])ccc2Cl)CC1 | inconclusive: 4.11 µM [falling, full curve, poor fit] | 
36 | Cc1cccc(C)c1Nc1nn2c(=O)c3cc4c(cc3nc2s1)OCO4 |  | inactive: -5.31% [at 9.27 µM]
37 | CCC(=O)Nc1cccc(-c2cn3cccc(C)c3n2)c1 | inconclusive: 11.6 µM [activator, partial curve, poor fit] | 
38 | Cc1cccc(NC(=O)CSc2ccc(-c3ccccn3)nn2)c1 | inconclusive: 29.1 µM [falling, single point] | 
39 | CCc1ccc(S(=O)(=O)N(C(=O)c2ccncc2)c2ccc3oc(C)c(C(=O)OC)c3c2)cc1 | active: 6.51 µM | 
40 | Oc1ccccc1-c1nc(NCCN2CCOCC2)c2ccccc2n1 | inconclusive: 18.4 µM [falling, single point] | 
41 | CCCC1(c2ccccc2)NC(=O)N(CC(=O)Nc2sc(-c3ccccc3)cc2C(=O)OCC)C1=O (stereo not drawn) | inconclusive: 23.1 µM [falling, single point] | 
42 | COC(=O)c1c(N)sc2c1CCN(c1ncc(C(F)(F)F)cc1Cl)C2 | inconclusive: 29.1 µM [falling, single point] | 

Row | SMILES | Potency | activity change, negative = inhibition
43 | COc1cccc(Cn2c(Oc3cc(C)cc(C)c3)nc3c2c(=O)n(C)c(=O)n3C)c1 | inconclusive: 32.6 µM [falling, partial curve, poor fit] | 
44 | CCC1CCCCN1C(=O)CCC(=O)Nc1nnc(C(F)(F)F)s1 (stereo not drawn) | inconclusive: 8.2 µM [falling, partial curve, poor fit] | 
45 | Cc1cc(C)cc(OCC(=O)Nc2nc(-c3ccccn3)cs2)c1 | inconclusive: 32.6 µM [falling, partial curve, poor fit] | 
46 | COc1ccc2[nH]c3c(c2c1)CCN1C(=O)C(CC(=O)NCCC2=CCCCC2)C[C@H](C(=O)N(C(C)C)C(C)C)[C@@]31C (stereo partly drawn) | inconclusive: 29.1 µM [falling, single point] | 
47 | O=C(N/N=C/c1c(Cl)cccc1Cl)c1ccccc1F | inconclusive: 13 µM [activator, partial curve] | 
48 | O=C(CSc1ncn[nH]1)Nc1cccc(S(=O)(=O)N2CCCCCC2)c1 | inconclusive: 29.1 µM [falling, single point] | 
49 | O=C(CSc1ccc(-c2ccco2)nn1)c1ccccc1 | inactive | 
50 | Cc1cc(OCC(=O)N2CCN(c3ccccn3)CC2)c(C)cc1Br | inconclusive: 29.1 µM [falling, single point] | 
51 | CN(C(=O)COC(=O)/C=C/c1ccc(Cl)c(Cl)c1)c1c(N)n(Cc2ccccc2)c(=O)[nH]c1=O | inconclusive: 23.1 µM [falling, single point] | 
52 | CCOC(=O)c1ccc(N2C(=O)c3n[nH]c(-c4ccco4)c3C2c2ccc(C)cc2)cc1 (stereo not drawn) | inconclusive: 29.1 µM [falling, single point] | 
53 | O=C(CCNC(=O)c1ccc([N+](=O)[O-])cc1)N/N=C/c1ccc(F)cc1 | inconclusive: 29.1 µM [falling, single point] | 
54 | COC(=O)c1[nH]c2ccc(F)cc2c1NS(=O)(=O)c1ccc(F)c(C)c1 | inactive | 
55 | O=C(COc1ncnc2sccc12)Nc1ccc(F)cc1F | inconclusive: 14.6 µM [activator, partial curve] | 
56 | Cc1cc(C)cc(NC(=O)CCS(=O)(=O)c2cccc3nsnc23)c1 |  | inactive: -17.8% [at 9.27 µM]
57 | O=C1c2sc3nc4ccccc4n3c2C(=O)N1c1ccccc1Cl | inactive | 
58 | O=C(Nc1ccc(S(=O)(=O)NCCc2ccccc2)cc1)c1ccc(Br)o1 | inconclusive: 16.4 µM [falling, partial curve, poor fit] | 
59 | O=C(Nc1nc(=O)c2ccccc2s1)c1ccc(F)cc1 | inconclusive: 11.6 µM [activator, partial curve] | 
60 | Cc1ccc(/C=C/C(=O)OC(C)C(=O)NC2CCCCC2C)o1 (stereo not drawn) | inconclusive: 13 µM [falling, single point] | 
61 | COC(=O)C1=C[C@@H](C(=O)OC)C2C3=C(C(=O)[C@]2(C)NC(=O)c2ccccc2)[C@H](C)n2c(=O)n(-c4ccccc4)c(=O)n2[C@@H]3C1 (stereo partly drawn) | inconclusive: 0.92 µM [falling, full curve, poor fit] | 
62 | COc1ccc(NC(=O)CCCSc2nc(-c3ccco3)cc(C(F)(F)F)n2)cc1OC | active: 23.1 µM and active: 20.6 µM | 
63 | CC1CCN(C(=O)CN(c2ccc(Oc3ccccc3)cc2)S(C)(=O)=O)CC1 | inconclusive: 25.9 µM [falling, partial curve] | 

Exported as comma-separated lines: entries from further up.
Row,SMILES,Potency,"activity change, negative = inhibition"
36,Cc1cccc(C)c1Nc1nn2c(=O)c3cc4c(cc3nc2s1)OCO4,,inactive: -5.31% [at 9.27 µM]
37,CCC(=O)Nc1cccc(-c2cn3cccc(C)c3n2)c1,"inconclusive: 11.6 µM [activator, partial curve, poor fit]",
38,Cc1cccc(NC(=O)CSc2ccc(-c3ccccn3)nn2)c1,"inconclusive: 29.1 µM [falling, single point]",
39,CCc1ccc(S(=O)(=O)N(C(=O)c2ccncc2)c2ccc3oc(C)c(C(=O)OC)c3c2)cc1,active: 6.51 µM,

Reference: PubChem BioAssay AID504444 (National Center for Advancing Translational Sciences (NCATS), 2011)
